Data from PMC5007465.
Results are given in words; binding and its absence hold for the method and conditions named. In cells and extracts the contact can be indirect. Some entries that bind do so weakly or less than the wild type. Sequences can lack the tags named with a protein. Each block holds one binder with its values, some of them ahead of it.

Biological target: T1, MBP-KLHL15-His (human) (UniProt Q96M94)
T1 sequence: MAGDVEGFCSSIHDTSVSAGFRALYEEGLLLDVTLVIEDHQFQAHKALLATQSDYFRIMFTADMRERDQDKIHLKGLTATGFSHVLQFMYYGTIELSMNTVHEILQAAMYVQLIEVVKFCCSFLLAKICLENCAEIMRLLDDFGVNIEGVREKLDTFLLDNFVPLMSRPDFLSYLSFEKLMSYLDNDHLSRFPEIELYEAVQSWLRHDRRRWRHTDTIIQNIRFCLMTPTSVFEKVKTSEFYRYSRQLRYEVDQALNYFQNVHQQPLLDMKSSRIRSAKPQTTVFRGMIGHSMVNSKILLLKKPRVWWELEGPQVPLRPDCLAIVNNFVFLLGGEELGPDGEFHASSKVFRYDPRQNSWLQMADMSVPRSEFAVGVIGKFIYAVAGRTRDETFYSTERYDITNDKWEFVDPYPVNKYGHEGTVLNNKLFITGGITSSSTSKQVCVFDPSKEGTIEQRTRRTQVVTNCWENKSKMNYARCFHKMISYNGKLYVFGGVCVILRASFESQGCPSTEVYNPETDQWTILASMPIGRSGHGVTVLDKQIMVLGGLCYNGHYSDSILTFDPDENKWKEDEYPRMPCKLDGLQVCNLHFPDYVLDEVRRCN
Assay: pull-down; MBP-KLHL15-His on amylose beads, incubated with 1 mg HEK293T lysate overexpressing GFP-CtIP constructs, 1 h at 4 °C, washes with NTEN300 (300 mM NaCl); immunoblot; only the target purified

binding: binds
B1: GFP-CtIP-ΔC3 (domain or fragment, UniProt Q99708 1-863)
chain: MNISGSSCGSPNSADTSSDFKDLWTKLKECHDREVQGLQVKVTKLKQERILDAQRLEEFFTKNQQLREQQKVLHETIKVLEDRLRAGLCDRCAVTEEHMRKKQQEFENIRQQNLKLITELMNERNTLQEENKKLSEQLQQKIENDQQHQAAELECEEDVIPDSPITAFSFSGVNRLRRKENPHVRYIEQTHTKLEHSVCANEMRKVSKSSTHPQHNPNENEILVADTYDQSQSPMAKAHGTSSYTPDKSSFNLATVVAETLGLGVQEESETQGPMSPLGDELYHCLEGNHKKQPFEESTRNTEDSLRFSDSTSKTPPQEELPTRVSSPVFGATSSIKSGLDLNTSLSPSLLQPGKKKHLKTLPFSNTCISRLEKTRSKSEDSALFTHHSLGSEVNKIIIQSSNKQILINKNISESLGEQNRTEYGKDSNTDKHLEPLKSLGGRTSKRKKTEEESEHEVSCPQASFDKENAFPFPMDNQFSMNGDCVMDKPLDLSDRFSAIQRQEKSQGSETSKNKFRQVTLYEALKTIPKGFSSSRKASDGNCTLPKDSPGEPCSQECIILQPLNKCSPDNKPSLQIKEENAVFKIPLRPRESLETENVLDDIKSAGSHEPIKIQTRSDHGGCELASVLQLNPCRTGKIKSLQNNQDVSFENIQWSIDPGADLSQYKMDVTVIDTKDGSQSKLGGETVDMDCTLVSETVLLKMKKQEQKGEKSSNEERKMNDSLEDMFDRTTHEEYESCLADSFSQAADEEEELSTATKKLHTHGDKQDKVKQKAFVEPYFKGDERETSLQNFPHIEVVRKKEERRKLLGHTCKECEIYYADMPAEEREKKLASCSRHRFRYIPPNTPENFWEVGFPSTQTCM

binding: no binding
B2: GFP-CtIP-ΔC2 (domain or fragment, UniProt Q99708 1-812)
chain: MNISGSSCGSPNSADTSSDFKDLWTKLKECHDREVQGLQVKVTKLKQERILDAQRLEEFFTKNQQLREQQKVLHETIKVLEDRLRAGLCDRCAVTEEHMRKKQQEFENIRQQNLKLITELMNERNTLQEENKKLSEQLQQKIENDQQHQAAELECEEDVIPDSPITAFSFSGVNRLRRKENPHVRYIEQTHTKLEHSVCANEMRKVSKSSTHPQHNPNENEILVADTYDQSQSPMAKAHGTSSYTPDKSSFNLATVVAETLGLGVQEESETQGPMSPLGDELYHCLEGNHKKQPFEESTRNTEDSLRFSDSTSKTPPQEELPTRVSSPVFGATSSIKSGLDLNTSLSPSLLQPGKKKHLKTLPFSNTCISRLEKTRSKSEDSALFTHHSLGSEVNKIIIQSSNKQILINKNISESLGEQNRTEYGKDSNTDKHLEPLKSLGGRTSKRKKTEEESEHEVSCPQASFDKENAFPFPMDNQFSMNGDCVMDKPLDLSDRFSAIQRQEKSQGSETSKNKFRQVTLYEALKTIPKGFSSSRKASDGNCTLPKDSPGEPCSQECIILQPLNKCSPDNKPSLQIKEENAVFKIPLRPRESLETENVLDDIKSAGSHEPIKIQTRSDHGGCELASVLQLNPCRTGKIKSLQNNQDVSFENIQWSIDPGADLSQYKMDVTVIDTKDGSQSKLGGETVDMDCTLVSETVLLKMKKQEQKGEKSSNEERKMNDSLEDMFDRTTHEEYESCLADSFSQAADEEEELSTATKKLHTHGDKQDKVKQKAFVEPYFKGDERETSLQNFPHIEVVRKKEERRKLLGHT

binding: no binding
B3: GFP-CtIP-ΔC1 (domain or fragment, UniProt Q99708 1-789)
chain: MNISGSSCGSPNSADTSSDFKDLWTKLKECHDREVQGLQVKVTKLKQERILDAQRLEEFFTKNQQLREQQKVLHETIKVLEDRLRAGLCDRCAVTEEHMRKKQQEFENIRQQNLKLITELMNERNTLQEENKKLSEQLQQKIENDQQHQAAELECEEDVIPDSPITAFSFSGVNRLRRKENPHVRYIEQTHTKLEHSVCANEMRKVSKSSTHPQHNPNENEILVADTYDQSQSPMAKAHGTSSYTPDKSSFNLATVVAETLGLGVQEESETQGPMSPLGDELYHCLEGNHKKQPFEESTRNTEDSLRFSDSTSKTPPQEELPTRVSSPVFGATSSIKSGLDLNTSLSPSLLQPGKKKHLKTLPFSNTCISRLEKTRSKSEDSALFTHHSLGSEVNKIIIQSSNKQILINKNISESLGEQNRTEYGKDSNTDKHLEPLKSLGGRTSKRKKTEEESEHEVSCPQASFDKENAFPFPMDNQFSMNGDCVMDKPLDLSDRFSAIQRQEKSQGSETSKNKFRQVTLYEALKTIPKGFSSSRKASDGNCTLPKDSPGEPCSQECIILQPLNKCSPDNKPSLQIKEENAVFKIPLRPRESLETENVLDDIKSAGSHEPIKIQTRSDHGGCELASVLQLNPCRTGKIKSLQNNQDVSFENIQWSIDPGADLSQYKMDVTVIDTKDGSQSKLGGETVDMDCTLVSETVLLKMKKQEQKGEKSSNEERKMNDSLEDMFDRTTHEEYESCLADSFSQAADEEEELSTATKKLHTHGDKQDKVKQKAFVEPYFKGDERETS
